Source: the supplement of paper PMC11732987, “Enantioselective OTUD7B fragment discovery through chemoproteomics screening and high-throughput optimisation” (Communications Chemistry, 2025)
Some of the results follow. The data scatter; read single values as rough.

Protein sequences, listed by entry. Tags and fused reporters are not part of them. Lines headed by an entry give the natural chain unless they say otherwise; changes in a name come on top. Residues count along the entry.
UniProt Q5VWN6, 605-629: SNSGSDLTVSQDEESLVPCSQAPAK
UniProt O60343, 749-768: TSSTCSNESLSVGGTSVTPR
UniProt Q99426: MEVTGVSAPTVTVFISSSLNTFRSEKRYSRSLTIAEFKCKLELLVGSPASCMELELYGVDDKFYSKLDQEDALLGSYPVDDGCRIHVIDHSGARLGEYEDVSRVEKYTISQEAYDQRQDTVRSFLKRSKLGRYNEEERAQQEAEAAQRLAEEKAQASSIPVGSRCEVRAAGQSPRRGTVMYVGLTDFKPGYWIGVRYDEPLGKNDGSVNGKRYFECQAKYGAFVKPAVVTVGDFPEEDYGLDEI
UniProt O15040: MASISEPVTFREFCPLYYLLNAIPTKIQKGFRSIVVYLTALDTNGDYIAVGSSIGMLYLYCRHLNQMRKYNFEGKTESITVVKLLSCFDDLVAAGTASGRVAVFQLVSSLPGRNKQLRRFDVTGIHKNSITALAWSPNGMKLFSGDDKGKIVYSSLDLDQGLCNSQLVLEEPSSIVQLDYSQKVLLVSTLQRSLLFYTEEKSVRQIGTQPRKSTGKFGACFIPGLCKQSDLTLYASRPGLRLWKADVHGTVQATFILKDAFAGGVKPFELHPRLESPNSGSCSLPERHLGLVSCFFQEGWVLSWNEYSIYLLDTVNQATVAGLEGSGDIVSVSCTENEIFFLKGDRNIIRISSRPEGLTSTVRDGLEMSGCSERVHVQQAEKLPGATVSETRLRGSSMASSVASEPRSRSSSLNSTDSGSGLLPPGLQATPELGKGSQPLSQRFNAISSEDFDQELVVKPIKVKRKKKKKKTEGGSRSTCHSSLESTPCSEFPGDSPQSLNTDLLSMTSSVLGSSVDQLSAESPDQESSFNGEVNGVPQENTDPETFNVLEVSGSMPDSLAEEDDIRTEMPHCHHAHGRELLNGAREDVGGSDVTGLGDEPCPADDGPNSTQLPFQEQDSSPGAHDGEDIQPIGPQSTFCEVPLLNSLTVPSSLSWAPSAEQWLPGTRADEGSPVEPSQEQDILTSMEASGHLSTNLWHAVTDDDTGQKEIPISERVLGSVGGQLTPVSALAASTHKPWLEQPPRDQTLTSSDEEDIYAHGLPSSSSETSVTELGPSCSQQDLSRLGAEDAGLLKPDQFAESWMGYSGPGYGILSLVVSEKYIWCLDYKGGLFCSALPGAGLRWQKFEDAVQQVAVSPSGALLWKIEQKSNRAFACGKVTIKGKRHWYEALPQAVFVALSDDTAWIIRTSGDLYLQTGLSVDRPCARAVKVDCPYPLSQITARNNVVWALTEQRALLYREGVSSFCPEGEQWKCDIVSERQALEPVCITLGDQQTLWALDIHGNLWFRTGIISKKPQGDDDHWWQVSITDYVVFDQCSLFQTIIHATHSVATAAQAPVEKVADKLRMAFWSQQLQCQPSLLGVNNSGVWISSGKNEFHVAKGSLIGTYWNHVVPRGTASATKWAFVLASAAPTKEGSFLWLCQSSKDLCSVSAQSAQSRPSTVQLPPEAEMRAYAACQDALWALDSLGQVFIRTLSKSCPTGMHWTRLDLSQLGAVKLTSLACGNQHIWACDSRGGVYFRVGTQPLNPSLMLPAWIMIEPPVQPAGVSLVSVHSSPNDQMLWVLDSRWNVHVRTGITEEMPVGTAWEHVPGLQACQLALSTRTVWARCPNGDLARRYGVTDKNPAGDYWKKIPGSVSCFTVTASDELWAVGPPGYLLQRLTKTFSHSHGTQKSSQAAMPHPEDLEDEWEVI
UniProt Q8IYN2: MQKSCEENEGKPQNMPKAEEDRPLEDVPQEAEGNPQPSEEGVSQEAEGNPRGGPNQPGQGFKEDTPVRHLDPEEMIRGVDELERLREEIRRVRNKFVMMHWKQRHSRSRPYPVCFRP
UniProt Q86TJ2: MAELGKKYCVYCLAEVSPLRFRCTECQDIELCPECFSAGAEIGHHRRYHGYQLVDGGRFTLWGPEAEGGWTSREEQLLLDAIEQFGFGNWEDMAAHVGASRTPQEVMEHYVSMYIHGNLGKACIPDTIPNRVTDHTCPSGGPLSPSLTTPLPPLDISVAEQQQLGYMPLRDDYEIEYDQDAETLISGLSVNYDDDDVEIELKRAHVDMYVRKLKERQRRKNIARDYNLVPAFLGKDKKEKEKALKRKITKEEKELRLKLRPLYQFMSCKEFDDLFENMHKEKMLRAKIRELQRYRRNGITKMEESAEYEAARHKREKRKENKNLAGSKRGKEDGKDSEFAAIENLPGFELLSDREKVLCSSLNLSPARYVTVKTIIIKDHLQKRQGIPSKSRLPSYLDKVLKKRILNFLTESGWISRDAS
UniProt Q9UGI8: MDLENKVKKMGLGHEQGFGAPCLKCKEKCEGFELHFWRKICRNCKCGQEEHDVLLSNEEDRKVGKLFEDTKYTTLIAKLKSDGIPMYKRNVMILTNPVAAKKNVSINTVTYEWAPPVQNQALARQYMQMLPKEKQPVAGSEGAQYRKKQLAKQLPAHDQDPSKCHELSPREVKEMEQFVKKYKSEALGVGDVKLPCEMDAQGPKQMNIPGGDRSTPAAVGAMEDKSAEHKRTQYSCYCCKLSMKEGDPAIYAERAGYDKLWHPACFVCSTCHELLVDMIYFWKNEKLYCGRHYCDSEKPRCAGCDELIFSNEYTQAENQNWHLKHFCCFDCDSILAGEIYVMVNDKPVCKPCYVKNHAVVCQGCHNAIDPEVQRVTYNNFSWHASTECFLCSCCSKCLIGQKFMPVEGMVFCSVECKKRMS
UniProt Q03519, whole entry, looked up: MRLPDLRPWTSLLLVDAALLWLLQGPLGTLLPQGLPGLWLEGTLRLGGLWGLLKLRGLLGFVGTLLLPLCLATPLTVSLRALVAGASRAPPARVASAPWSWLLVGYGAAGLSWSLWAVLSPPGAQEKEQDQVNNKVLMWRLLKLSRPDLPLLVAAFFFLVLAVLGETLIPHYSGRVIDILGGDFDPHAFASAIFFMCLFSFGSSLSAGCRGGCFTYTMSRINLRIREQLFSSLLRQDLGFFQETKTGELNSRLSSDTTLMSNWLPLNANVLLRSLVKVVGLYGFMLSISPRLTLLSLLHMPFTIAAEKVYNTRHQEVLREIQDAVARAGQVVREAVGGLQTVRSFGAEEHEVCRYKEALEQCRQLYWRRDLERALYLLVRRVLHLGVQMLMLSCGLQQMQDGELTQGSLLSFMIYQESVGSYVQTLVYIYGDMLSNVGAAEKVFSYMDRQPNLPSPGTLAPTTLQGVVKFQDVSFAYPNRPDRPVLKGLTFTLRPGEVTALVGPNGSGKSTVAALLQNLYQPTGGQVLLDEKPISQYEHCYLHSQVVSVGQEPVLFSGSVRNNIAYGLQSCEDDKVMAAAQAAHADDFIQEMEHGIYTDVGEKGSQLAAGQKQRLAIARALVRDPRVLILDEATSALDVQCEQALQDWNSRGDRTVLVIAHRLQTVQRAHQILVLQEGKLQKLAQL
UniProt Q9Y4P3: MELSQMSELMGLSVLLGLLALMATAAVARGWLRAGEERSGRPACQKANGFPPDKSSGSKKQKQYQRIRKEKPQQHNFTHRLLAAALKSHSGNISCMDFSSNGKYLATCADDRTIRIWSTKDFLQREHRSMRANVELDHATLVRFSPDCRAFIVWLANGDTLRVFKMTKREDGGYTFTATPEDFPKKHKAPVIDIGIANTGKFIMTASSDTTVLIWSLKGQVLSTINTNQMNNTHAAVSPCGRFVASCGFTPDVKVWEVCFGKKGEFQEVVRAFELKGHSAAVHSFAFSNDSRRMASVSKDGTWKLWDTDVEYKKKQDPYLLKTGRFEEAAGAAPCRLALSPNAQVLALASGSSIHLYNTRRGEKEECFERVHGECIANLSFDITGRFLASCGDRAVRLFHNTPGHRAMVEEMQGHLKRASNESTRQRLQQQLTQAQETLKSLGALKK
UniProt Q9NYJ8: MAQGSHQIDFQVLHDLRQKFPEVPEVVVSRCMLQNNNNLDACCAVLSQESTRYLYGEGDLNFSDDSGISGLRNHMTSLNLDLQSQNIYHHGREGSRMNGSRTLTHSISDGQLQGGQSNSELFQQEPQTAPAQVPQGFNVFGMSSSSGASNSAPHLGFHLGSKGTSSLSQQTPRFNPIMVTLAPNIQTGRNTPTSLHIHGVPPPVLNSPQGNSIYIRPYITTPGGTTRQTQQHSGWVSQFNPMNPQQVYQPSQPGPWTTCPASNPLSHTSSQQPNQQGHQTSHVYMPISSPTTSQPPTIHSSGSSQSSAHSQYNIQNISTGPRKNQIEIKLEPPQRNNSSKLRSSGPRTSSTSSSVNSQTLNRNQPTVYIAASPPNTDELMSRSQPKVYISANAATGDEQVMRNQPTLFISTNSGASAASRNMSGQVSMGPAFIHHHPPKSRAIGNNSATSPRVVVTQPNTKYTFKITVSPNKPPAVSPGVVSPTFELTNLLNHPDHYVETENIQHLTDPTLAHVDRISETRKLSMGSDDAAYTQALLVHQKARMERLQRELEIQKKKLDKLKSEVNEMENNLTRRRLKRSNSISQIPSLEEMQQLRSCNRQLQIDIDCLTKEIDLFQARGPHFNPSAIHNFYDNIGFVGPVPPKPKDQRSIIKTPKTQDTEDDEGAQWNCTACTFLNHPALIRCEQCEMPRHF
UniProt Q7Z2Z1: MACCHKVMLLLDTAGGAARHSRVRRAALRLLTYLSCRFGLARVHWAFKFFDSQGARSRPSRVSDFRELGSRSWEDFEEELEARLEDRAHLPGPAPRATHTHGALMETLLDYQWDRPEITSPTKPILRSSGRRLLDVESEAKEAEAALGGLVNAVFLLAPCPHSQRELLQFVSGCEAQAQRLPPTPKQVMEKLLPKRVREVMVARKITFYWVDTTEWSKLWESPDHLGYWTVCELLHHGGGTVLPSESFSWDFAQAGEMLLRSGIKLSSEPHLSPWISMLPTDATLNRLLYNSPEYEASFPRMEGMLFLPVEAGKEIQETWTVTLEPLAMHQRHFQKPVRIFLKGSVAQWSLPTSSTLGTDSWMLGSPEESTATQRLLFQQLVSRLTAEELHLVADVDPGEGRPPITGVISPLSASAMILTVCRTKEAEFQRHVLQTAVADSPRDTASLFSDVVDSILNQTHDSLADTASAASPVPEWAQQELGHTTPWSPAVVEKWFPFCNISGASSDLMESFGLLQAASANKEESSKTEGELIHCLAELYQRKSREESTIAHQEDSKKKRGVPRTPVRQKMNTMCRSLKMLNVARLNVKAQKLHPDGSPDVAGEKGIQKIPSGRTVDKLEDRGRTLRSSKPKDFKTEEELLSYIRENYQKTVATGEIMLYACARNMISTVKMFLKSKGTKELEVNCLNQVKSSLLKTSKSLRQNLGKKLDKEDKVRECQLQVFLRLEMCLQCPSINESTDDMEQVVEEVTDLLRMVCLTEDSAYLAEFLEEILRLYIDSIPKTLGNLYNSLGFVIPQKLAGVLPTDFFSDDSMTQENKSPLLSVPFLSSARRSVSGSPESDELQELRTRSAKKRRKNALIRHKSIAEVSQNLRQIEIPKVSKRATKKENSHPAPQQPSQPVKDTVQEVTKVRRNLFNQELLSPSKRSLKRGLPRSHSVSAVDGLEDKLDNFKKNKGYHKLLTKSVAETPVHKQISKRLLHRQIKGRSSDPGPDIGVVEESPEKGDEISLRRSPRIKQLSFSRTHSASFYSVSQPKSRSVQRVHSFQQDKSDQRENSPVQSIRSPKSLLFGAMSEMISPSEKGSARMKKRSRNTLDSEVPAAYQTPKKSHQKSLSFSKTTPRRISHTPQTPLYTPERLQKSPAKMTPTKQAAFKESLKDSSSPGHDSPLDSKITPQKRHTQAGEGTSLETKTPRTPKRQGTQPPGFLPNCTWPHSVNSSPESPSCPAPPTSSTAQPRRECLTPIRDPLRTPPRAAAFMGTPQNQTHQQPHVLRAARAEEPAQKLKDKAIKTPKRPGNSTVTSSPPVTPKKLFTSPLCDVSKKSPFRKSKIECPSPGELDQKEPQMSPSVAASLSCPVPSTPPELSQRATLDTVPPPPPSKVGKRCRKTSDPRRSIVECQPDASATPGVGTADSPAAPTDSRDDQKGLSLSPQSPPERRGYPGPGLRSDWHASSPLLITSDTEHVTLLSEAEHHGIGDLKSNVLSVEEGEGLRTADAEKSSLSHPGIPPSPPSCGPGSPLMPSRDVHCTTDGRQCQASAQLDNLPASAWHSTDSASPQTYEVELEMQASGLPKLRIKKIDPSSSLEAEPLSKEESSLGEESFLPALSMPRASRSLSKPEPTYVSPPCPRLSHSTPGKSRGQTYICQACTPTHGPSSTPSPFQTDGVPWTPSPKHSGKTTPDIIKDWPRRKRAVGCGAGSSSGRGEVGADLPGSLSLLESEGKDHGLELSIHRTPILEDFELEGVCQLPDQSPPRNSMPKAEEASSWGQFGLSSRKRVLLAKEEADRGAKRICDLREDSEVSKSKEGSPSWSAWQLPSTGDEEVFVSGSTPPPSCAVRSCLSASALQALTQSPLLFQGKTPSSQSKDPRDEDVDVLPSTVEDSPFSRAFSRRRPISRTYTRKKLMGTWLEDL

Each target was assayed with ClCC(=O)N[C@H]1CCCc2ccccc12 (assay: log2 mean competition ratio of IA-DTB cysteine labelling (DMSO/compound) (log2 ratio); higher = stronger cysteine engagement by compound). Settings: 200 µM; treatment time: 4 h; cell line lysate: HEK293T.
Description: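 IA-DTB competitive cysteine chemoproteomics in HEK293T RIPA lysate. Lysates were treated with compound 29 or 30 at 50 or 200 µM for 4 h, then IA-DTB (500 µM, 1 h), trypsin-digested, NeutrAvidin-enriched and analysed by diaPASEF. Competition ratio = intensity DMSO / intensity compound (n=4 treated, n=64 DMSO); binding: mean log2 CR ≥ 1 and p ≤ 0.05 plus QC filters. Target is the cysteine site.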
With TAF5L C188 (UniProt O75529) the “log2 mean competition ratio” value was 0.612. TBC1D13 C387 (UniProt Q9NVG8) was tested, and the “log2 mean competition ratio” value was -0.0429. In the case of TASOR2 C1432 (UniProt Q5VWN6), the “log2 mean competition ratio” value is reported as 0.0933. For TBC1D4 C156 (UniProt O60343), the “log2 mean competition ratio” value was -0.00147. With TBCB C216 (UniProt Q99426) the “log2 mean competition ratio” value was 0.0791. In the case of TECPR2 C371 (UniProt O15040), the “log2 mean competition ratio” value is reported as 0.328. TASOR2 C1423 (UniProt Q5VWN6) was tested, and the “log2 mean competition ratio” value was -0.0816. In the case of TBL3 C444 (UniProt Q12788), the “log2 mean competition ratio” value is reported as -0.24. For TFCP2 C369 (UniProt Q12800), the “log2 mean competition ratio” value was -0.182. In the case of THNSL1 C277 (UniProt Q8IYQ7), the “log2 mean competition ratio” value is reported as -0.0173. TCEAL8 C5 (UniProt Q8IYN2) was tested, and the “log2 mean competition ratio” value was -0.0544. TADA2B C123 (UniProt Q86TJ2) was tested, and the “log2 mean competition ratio” value was -0.0759. With TAOK1 C798 (UniProt Q7L7X3) the “log2 mean competition ratio” value was -0.339. For TES C46 (UniProt Q9UGI8), the “log2 mean competition ratio” value was -0.199. In the case of THOC1 C156 (UniProt Q96FV9), the “log2 mean competition ratio” value is reported as 0.299. THOC2 C931 was tested, and the “log2 mean competition ratio” value was 0.0775. For THADA C1585 (UniProt Q6YHU6), the “log2 mean competition ratio” value was -0.186. For TAP2 C353 (UniProt Q03519), the “log2 mean competition ratio” value was 0.783. With TAPT1 C487 (UniProt Q6NXT6) the “log2 mean competition ratio” value was -0.106. With TAF5 C632 (UniProt Q15542) the “log2 mean competition ratio” value was 0.0844. In the case of TBC1D15 C184 (UniProt Q8TC07), the “log2 mean competition ratio” value is reported as 0.0385. With THUMPD3 C505 (UniProt Q9BV44) the “log2 mean competition ratio” value was -0.0445. With TBL2 C247 (UniProt Q9Y4P3) the “log2 mean competition ratio” value was 0.172. For TES C196 (UniProt Q9UGI8), the “log2 mean competition ratio” value was 0.111. TBC1D15 C686 (UniProt Q8TC07) was tested, and the “log2 mean competition ratio” value was 0.144. For TENM2 C774, the “log2 mean competition ratio” value was -0.193. In the case of TEPSIN C243, the “log2 mean competition ratio” value is reported as -0.386. THEM6 C168 (UniProt Q8WUY1) was tested, and the “log2 mean competition ratio” value was -0.127. TAB2 C608 (UniProt Q9NYJ8) was tested, and the “log2 mean competition ratio” value was 0.196. TICRR C1694 (UniProt Q7Z2Z1) was tested, and the “log2 mean competition ratio” value was 0.245. In the case of TBC1D4 C753 (UniProt O60343), the “log2 mean competition ratio” value is reported as 0.00196. In the case of TES C22 (UniProt Q9UGI8), the “log2 mean competition ratio” value is reported as -0.0811. In the case of TASOR C830 (UniProt Q9UK61), the “log2 mean competition ratio” value is reported as 0.136. For TBC1D1 C766 (UniProt Q86TI0), the “log2 mean competition ratio” value was 0.325. With TASOR2 C623 (UniProt Q5VWN6) the “log2 mean competition ratio” value was 0.0365. TATDN2 C19 (UniProt Q93075) was tested, and the “log2 mean competition ratio” value was 0.0803. With TBCK C512 (UniProt Q8TEA7) the “log2 mean competition ratio” value was -0.0421. In the case of TELO2 C518 (UniProt Q9Y4R8), the “log2 mean competition ratio” value is reported as -0.453.
